# In the supplement of paper PMC12819154, “High-throughput peptide-centric local stability assay extends protein–ligand identification to membrane proteins, tissues and bacteria” (Nature Structural & Molecular Biology, 2025):
# Protein sequences, listed by entry. Tags and fused reporters are not part of them. Lines headed by an entry give the natural chain unless they say otherwise; changes in a name come on top.
# UniProt Q9BYE7: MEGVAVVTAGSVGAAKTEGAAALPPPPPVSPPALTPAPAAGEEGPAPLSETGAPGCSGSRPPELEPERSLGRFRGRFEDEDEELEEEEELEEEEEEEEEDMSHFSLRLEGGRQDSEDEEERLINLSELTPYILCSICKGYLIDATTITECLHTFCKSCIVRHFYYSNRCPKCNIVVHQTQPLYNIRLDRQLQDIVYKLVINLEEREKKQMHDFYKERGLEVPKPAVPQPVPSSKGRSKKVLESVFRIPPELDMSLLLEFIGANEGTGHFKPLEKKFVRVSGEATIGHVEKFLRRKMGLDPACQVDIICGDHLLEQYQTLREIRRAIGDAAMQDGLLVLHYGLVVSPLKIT
# UniProt Q9C0C2: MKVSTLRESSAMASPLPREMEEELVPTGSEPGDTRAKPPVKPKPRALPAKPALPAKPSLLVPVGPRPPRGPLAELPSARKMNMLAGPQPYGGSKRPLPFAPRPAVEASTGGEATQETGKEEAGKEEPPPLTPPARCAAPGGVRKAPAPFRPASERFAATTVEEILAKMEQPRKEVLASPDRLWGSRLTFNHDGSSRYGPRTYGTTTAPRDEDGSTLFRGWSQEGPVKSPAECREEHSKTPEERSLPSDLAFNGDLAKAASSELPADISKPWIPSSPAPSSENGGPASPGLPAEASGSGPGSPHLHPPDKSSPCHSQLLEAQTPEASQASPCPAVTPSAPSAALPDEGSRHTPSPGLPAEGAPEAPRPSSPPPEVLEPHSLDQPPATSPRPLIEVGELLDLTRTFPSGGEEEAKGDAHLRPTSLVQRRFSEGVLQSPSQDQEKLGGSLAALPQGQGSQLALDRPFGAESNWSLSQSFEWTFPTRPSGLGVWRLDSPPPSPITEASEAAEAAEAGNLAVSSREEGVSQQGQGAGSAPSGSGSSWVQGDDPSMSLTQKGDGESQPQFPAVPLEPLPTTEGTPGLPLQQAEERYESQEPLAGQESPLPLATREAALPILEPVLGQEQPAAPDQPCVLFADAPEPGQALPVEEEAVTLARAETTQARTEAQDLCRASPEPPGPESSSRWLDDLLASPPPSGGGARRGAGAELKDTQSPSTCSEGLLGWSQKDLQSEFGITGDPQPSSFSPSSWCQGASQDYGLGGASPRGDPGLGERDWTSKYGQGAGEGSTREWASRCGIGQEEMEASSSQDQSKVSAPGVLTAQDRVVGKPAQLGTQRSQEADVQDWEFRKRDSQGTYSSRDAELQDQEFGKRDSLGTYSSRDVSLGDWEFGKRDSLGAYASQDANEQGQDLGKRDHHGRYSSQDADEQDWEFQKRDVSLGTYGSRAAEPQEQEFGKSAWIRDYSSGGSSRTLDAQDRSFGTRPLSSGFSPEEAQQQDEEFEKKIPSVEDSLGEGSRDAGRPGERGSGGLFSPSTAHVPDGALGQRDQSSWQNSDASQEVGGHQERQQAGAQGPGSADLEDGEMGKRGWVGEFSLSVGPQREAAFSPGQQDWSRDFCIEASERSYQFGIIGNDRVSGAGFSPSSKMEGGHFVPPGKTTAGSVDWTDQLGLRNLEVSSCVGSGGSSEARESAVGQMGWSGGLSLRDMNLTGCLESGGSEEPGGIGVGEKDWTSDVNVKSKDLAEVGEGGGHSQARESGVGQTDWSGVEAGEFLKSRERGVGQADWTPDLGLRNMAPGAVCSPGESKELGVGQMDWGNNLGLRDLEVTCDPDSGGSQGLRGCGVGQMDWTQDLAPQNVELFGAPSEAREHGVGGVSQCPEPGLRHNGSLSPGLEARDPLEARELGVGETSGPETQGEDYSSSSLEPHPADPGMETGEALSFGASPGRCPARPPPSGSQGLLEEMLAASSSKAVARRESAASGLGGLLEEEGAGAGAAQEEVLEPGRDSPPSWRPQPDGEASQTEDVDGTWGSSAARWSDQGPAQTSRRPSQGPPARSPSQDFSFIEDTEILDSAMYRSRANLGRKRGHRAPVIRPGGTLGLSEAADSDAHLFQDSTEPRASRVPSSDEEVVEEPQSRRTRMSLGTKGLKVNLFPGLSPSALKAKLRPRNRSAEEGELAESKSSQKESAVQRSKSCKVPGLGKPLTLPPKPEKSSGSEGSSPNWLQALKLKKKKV
# UniProt Q9BZ68: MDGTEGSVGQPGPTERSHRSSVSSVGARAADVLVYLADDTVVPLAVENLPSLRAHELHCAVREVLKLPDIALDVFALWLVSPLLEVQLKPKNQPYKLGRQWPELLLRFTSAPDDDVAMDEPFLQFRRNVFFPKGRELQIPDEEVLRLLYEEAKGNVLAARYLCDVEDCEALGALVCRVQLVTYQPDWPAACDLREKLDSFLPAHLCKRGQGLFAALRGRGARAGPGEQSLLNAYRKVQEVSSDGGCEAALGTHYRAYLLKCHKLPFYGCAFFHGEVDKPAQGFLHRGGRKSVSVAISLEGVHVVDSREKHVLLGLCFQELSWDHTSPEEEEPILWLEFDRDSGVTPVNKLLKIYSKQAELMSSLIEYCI
# UniProt Q9H3M7: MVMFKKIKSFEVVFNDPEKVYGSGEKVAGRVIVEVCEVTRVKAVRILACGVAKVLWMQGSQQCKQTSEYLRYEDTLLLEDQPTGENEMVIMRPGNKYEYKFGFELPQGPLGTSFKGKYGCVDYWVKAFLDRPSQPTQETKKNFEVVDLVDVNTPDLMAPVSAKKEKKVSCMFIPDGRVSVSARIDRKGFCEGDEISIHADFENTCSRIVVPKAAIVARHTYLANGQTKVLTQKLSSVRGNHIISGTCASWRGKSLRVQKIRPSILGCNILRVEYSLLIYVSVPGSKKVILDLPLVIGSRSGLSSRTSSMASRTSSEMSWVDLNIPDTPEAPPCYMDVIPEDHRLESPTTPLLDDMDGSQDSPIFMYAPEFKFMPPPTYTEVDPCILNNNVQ
# UniProt Q9BZ23: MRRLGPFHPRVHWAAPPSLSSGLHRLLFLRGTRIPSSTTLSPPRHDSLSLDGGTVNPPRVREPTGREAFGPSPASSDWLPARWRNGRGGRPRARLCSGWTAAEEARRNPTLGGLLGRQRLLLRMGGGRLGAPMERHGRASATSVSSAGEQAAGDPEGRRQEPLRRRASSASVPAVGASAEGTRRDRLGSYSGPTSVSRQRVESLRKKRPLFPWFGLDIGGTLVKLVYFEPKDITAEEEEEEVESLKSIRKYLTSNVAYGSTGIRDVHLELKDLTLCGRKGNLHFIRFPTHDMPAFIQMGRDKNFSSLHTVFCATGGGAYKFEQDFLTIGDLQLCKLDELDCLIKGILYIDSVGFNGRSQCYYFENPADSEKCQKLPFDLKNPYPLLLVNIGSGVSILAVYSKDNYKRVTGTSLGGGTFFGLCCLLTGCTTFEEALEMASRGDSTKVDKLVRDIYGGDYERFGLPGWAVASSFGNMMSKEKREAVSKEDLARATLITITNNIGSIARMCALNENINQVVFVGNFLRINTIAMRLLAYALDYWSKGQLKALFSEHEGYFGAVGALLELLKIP
# UniProt Q9BWT3: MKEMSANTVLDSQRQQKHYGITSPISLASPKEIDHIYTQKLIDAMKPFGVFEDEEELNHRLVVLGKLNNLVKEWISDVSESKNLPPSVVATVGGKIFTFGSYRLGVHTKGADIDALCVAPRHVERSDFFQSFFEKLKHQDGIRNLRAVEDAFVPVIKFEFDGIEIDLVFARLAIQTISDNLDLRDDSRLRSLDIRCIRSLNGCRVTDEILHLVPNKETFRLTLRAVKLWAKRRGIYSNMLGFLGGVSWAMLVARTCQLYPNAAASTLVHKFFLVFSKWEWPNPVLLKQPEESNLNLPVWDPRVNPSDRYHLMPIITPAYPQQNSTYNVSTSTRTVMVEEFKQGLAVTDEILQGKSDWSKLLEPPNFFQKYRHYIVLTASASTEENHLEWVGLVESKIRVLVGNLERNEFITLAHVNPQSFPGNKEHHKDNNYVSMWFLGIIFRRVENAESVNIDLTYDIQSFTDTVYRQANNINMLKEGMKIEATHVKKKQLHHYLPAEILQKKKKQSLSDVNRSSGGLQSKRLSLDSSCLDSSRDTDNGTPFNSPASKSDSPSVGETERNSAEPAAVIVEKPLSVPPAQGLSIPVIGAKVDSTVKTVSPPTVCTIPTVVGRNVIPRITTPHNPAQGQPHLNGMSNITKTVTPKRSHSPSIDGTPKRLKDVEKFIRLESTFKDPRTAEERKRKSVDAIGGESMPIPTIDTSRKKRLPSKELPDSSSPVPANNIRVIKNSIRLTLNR
# UniProt Q9BXL5: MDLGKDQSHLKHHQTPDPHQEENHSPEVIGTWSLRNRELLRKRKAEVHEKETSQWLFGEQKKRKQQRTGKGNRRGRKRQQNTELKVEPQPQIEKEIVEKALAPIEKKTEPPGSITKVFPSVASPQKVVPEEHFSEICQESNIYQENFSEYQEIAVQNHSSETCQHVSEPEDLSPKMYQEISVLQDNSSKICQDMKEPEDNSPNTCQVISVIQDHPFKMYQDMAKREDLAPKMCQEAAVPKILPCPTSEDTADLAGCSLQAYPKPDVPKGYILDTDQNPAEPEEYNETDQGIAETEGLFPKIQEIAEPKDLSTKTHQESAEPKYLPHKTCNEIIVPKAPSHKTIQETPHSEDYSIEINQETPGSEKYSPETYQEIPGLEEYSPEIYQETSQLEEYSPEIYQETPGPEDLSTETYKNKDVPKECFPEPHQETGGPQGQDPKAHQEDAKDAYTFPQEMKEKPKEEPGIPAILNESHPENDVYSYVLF
# UniProt Q9H147: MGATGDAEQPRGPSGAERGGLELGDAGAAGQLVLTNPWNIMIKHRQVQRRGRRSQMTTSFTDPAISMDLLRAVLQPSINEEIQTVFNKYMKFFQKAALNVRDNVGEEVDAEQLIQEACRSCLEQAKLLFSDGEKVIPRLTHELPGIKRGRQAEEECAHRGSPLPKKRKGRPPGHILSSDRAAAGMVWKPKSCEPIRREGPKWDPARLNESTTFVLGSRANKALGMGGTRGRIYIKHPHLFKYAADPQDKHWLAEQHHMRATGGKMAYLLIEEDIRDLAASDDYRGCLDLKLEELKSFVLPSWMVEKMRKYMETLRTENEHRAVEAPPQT
# This is one part of the list. Most values lie at the level of the controls, where differences are scatter.
# Compound: CN[C@@H]1C[C@H]2O[C@@](C)([C@@H]1OC)n1c3ccccc3c3c4c(c5c6ccccc6n2c5c31)C(=O)NC4 [staurosporine]
# Test: log2 fold change of tryptic peptide abundance, ligand vs vehicle (limited proteolysis) (log2 ratio); higher = more trypsin-susceptible (destabilized)
# Conditions: ligand concentration: 20 uM; sample: K562 cleared lysate; digestion: 4 min, 22 C (HT-PELSA RT4min, Orbitrap Astral)
row,Target,log2 fold change
1,"GTPBP4 (peptide sequence: LALGQINIAK, peptide start residue: 94) (UniProt Q9BZE4)",0.116
2,"PCGF6 (peptide sequence: VSGEATIGHVEK, peptide start residue: 279) (UniProt Q9BYE7)",0.924
3,"TNKS1BP1 (peptide sequence: KEVLASPDRLWGSR, peptide start residue: 173) (UniProt Q9C0C2)",-0.285
4,"UniProt Q9BZ68 (peptide sequence: LDSFLPAHLCKR, peptide start residue: 197)",0.371
5,"TXNIP (peptide sequence: GNHIISGTCASWR, peptide start residue: 239) (UniProt Q9H3M7)",-0.0874
6,"PANK2 (peptide sequence: LGSYSGPTSVSR, peptide start residue: 187) (UniProt Q9BZ23)",-0.147
7,"MRPL13 (peptide sequence: VYSSHTGYPGGFR, peptide start residue: 76) (UniProt Q9BYD1)",0.0834
8,"PAPOLG (peptide sequence: MKEMSANTVLDSQR, peptide start residue: 1) (UniProt Q9BWT3)",0.373
9,"HEMGN (peptide sequence: ETSQWLFGEQKK, peptide start residue: 51) (UniProt Q9BXL5)",-0.197
10,"DNTTIP1 (peptide sequence: EGPKWDPAR, peptide start residue: 198) (UniProt Q9H147)",0.395

# Shown bar-delimited: entries from further up.
row | Target | log2 fold change
6 | PANK2 (peptide sequence: LGSYSGPTSVSR, peptide start residue: 187) (UniProt Q9BZ23) | -0.147
7 | MRPL13 (peptide sequence: VYSSHTGYPGGFR, peptide start residue: 76) (UniProt Q9BYD1) | 0.0834
